Values from PubChem BioAssay AID1224828 (NIAID, 2016).

Purpose: 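Regulators linking TLR4 signalling to p65 nuclear translocation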 (primary screen)
Cells: mouse RAW264.7 G9 macrophage reporter cells (GFP-p65, Tnf promoter-mCherry)
Reagent: siRNA pool against mouse genes, 100 nM
Timing: 2 days siRNA transfection, then 40 min LPS before fixation
Conditions: LPS (Salmonella minnesota R595) at 10 ng/ml
Measured: 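Microscopy ratio of nuclear to perinuclear-ring GFP-p65 signal, scaled to the plate median; gene score is the average of two replicate robust z-scores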
Reading the numbers: p65 translocation robust z-score: higher = more nuclear NF-kappaB p65 after LPS than the plate median; nuclear/cytoplasmic p65 ratio: higher = more nuclear NF-kappaB p65
Active means: 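Called active when z exceeds 3.3 or falls under -1.56 (median of Tlr4 controls), giving activity score of at least 50; no calls for control wells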
Meaning of the calls: active = hit (p65 shift raised or lowered); inactive = no clear change
This is one part, drawn at random, of about 17,000 deposited reagents. Of all reagents, 762 (4.5%) are marked active. 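Active calls include both raised and lowered p65 entry, mostly lowered; wells with fewer than 50 cells lack a z-score.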 Raw values vary from plate to plate and are shown uncorrected. Entries without a mark were called inactive.

| target | p65 translocation robust z-score | nuclear/cytoplasmic p65 ratio, rep 1 | nuclear/cytoplasmic p65 ratio, rep 2 | low cell count flag |
| --- | --- | --- | --- | --- |
| Zbtb11 | -0.53 | 1.41 | 1.41 | enough cells to score |
| Kdm1b | -0.21 | 1.61 | 1.61 | enough cells to score |
| Or8s10 | – | 1.83 | 1.69 | fewer than 50 cells per well; well left out of scoring |
| Ercc2 | 0.45 | 1.58 | 1.38 | enough cells to score |
| Rbm3 | 0.29 | 1.49 | 1.23 | enough cells to score |
| Ifna12 | -1.14 | 1.27 | 1.28 | enough cells to score |
| Wsb1 | 0.25 | 1.5 | 1.28 | enough cells to score |
| Adm | -0.36 | 1.61 | 1.52 | enough cells to score |
| Stat3 | -0.02 | 1.55 | 1.55 | enough cells to score |
| Gzmk | 1.01 | 1.79 | 1.7 | enough cells to score |
| E230015B07Rik | – | 1.01 | 1.24 | fewer than 50 cells per well; well left out of scoring |
| Smarca4 | 0.33 | 1.56 | 1.64 | enough cells to score |
| Slc22a21 | 0.55 | 1.44 | 1.35 | enough cells to score |
| Ss18l2 | 0.33 | 1.59 | 1.63 | enough cells to score |
| Ifngr1 | 0.65 | 1.44 | 1.53 | enough cells to score |
| Il7r | -1.24 | 1.31 | 1.22 | enough cells to score |
| Prss50 | – | 1.3 | 1.26 | fewer than 50 cells per well; well left out of scoring |
| Ift56 | 0.27 | 1.43 | 1.62 | enough cells to score |
| Syne4 | -0.93 | 1.41 | 1.6 | enough cells to score |
| Akr1c12 | 0.31 | 1.63 | 1.75 | enough cells to score |
| Aarsd1 | 1.41 | 1.61 | 1.41 | enough cells to score |
| Lmbrd2 | 2.59 | 1.82 | 1.87 | enough cells to score |
| Tspan4 | 0.09 | 1.35 | 1.23 | enough cells to score |
| Akr1cl | -1.13 | 1.15 | 1.09 | enough cells to score |
| Jdp2 | -1.68 (active) | 1.32 | 1.2 | enough cells to score |
| Calhm5 | -1.52 | 1.29 | 1.66 | enough cells to score |
| Traf4 | 1.47 | 1.69 | 1.73 | enough cells to score |
| Gtpbp3 | 0.28 | 1.74 | 1.54 | enough cells to score |

In a second layout: results already given
target | p65 translocation robust z-score | nuclear/cytoplasmic p65 ratio, rep 1 | nuclear/cytoplasmic p65 ratio, rep 2 | low cell count flag
Ss18l2 | 0.33 | 1.59 | 1.63 | enough cells to score
Ifngr1 | 0.65 | 1.44 | 1.53 | enough cells to score
Il7r | -1.24 | 1.31 | 1.22 | enough cells to score
Prss50 | – | 1.3 | 1.26 | fewer than 50 cells per well; well left out of scoring
Ift56 | 0.27 | 1.43 | 1.62 | enough cells to score

Further results follow:
| target | p65 translocation robust z-score | nuclear/cytoplasmic p65 ratio, rep 1 | nuclear/cytoplasmic p65 ratio, rep 2 | low cell count flag |
| --- | --- | --- | --- | --- |
| Opn5 | -0.09 | 1.51 | 1.57 | enough cells to score |
| Ifi204 | -0.17 | 1.43 | 1.34 | enough cells to score |
| Angpt2 | -0.83 | 1.51 | 1.48 | enough cells to score |
| Spem2 | – | 1.24 | 1.18 | fewer than 50 cells per well; well left out of scoring |
| Acads | 0.01 | 1.62 | 1.62 | enough cells to score |
| Srrm3 | – | 1.13 | 1.42 | fewer than 50 cells per well; well left out of scoring |
| Thbd | 0.03 | 1.53 | 1.52 | enough cells to score |
| Lce1a1 | 0.29 | 1.44 | 1.28 | enough cells to score |
| Pgk2 | 0.51 | 1.82 | 1.4 | enough cells to score |
| C1qc | -0.76 | 1.48 | 1.52 | enough cells to score |
| Hdac5 | -1.78 (active) | 1.15 | 1.19 | enough cells to score |
| Surf6 | -1.22 | 1.26 | 1.13 | enough cells to score |
| Scrn1 | 0.07 | 1.41 | 1.24 | enough cells to score |
| Traf5 | -0.44 | 1.45 | 1.44 | enough cells to score |
| Gm5111 | – | 1.24 | 1.59 | fewer than 50 cells per well; well left out of scoring |
| Cacna1c | 0.09 | 1.63 | 1.63 | enough cells to score |
| Or6s1 | -0.48 | 1.38 | 1.22 | enough cells to score |
| Fbxo6 | -0.81 | 1.41 | 1.22 | enough cells to score |
| Hsp90aa1 | 0.46 | 1.32 | 1.45 | enough cells to score |
| Isg20 | -1.04 | 1.4 | 1.19 | enough cells to score |
| Otop2 | -0.1 | 1.35 | 1.29 | enough cells to score |
| Ttc3 | -1.07 | 1.28 | 1.11 | enough cells to score |
| Akr1a1 | -0.59 | 1.44 | 1.61 | enough cells to score |
| Vmn1r63 | -0.14 | 1.48 | 1.17 | enough cells to score |
| Pnoc | – | 1.57 | 1.16 | fewer than 50 cells per well; well left out of scoring |
| Moxd1 | 1.12 | 1.78 | 1.92 | enough cells to score |
| Gm5134 | 1.01 | 1.91 | 1.66 | enough cells to score |
| Adam32 | -0.57 | 1.51 | 1.56 | enough cells to score |
| Tuba1c | – | 1.92 | 1.34 | fewer than 50 cells per well; well left out of scoring |
| Gm15850 | 1.82 | 1.69 | 1.78 | enough cells to score |
| Ighg3 | 0.29 | 1.57 | 1.81 | enough cells to score |
